Values from PubChem BioAssay AID686943 (Drosophila RNAi Screening Center, 2013)

Purpose: 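Search across the genome for regulators of signalling from receptor tyrosine kinase to ERK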 (primary screen)
Cells: Drosophila S2R+ haemocyte-like cells expressing YFP-tagged ERK (Rolled)
Reagent: long dsRNA against Drosophila genes
Treatment: insulin stimulation versus unstimulated cells; dose and duration not given
Read-out: 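Antibody staining for doubly phosphorylated ERK divided by ERK-YFP signal, as plate z-scores, in insulin-treated and untreated cells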
Reading the numbers: replicate 1, z-score of dpERK with insulin: higher = more active ERK per ERK-YFP after insulin
The deposit covers about 23,000 reagents; below is a random part of those that have a named target and a result. 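Extra replicates exist only for a retested subset of genes; insulin dose and duration not given; both raised and lowered dpERK matter.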 Not all columns of the deposit are shown. Not given: the amount of reagent, the time to read-out.

How did the screen score CG42329 [DRSC00373]?
replicate 1, z-score of dpERK with insulin: 0.34

Which result is listed for CG42329 [DRSC00682]?
replicate 1, z-score of dpERK with insulin: -0.71

With Nop17l [DRSC06556], what does the deposit list?
replicate 1, z-score of dpERK with insulin: 0.54

For CG11350 [DRSC08181], how do the results read?
replicate 1, z-score of dpERK with insulin: 0.27

What did the screen give for SppL [DRSC15228]?
replicate 1, z-score of dpERK with insulin: -0.08

With cmb [DRSC09790], what was measured?
replicate 1, z-score of dpERK with insulin: -0.23

For r [DRSC19813], what does the deposit list?
replicate 1, z-score of dpERK with insulin: 0.17

How did the screen score r [DRSC19814]?
replicate 1, z-score of dpERK with insulin: 0.04

With CG34150 [DRSC13689], how do the results read?
replicate 1, z-score of dpERK with insulin: 0.52

For tyn [DRSC20652], what does the deposit list?
replicate 1, z-score of dpERK with insulin: 1.54

With Send1 [DRSC00482], how do the results read?
replicate 1, z-score of dpERK with insulin: -0.25

What is on record for Sodq [DRSC15924]?
replicate 1, z-score of dpERK with insulin: -0.43

For enc [DRSC08716], what does the deposit list?
replicate 1, z-score of dpERK with insulin: 0.03

Which result is listed for CG14190 [DRSC19545]?
replicate 1, z-score of dpERK with insulin: 0.31

What did the screen give for l(3)neo38 [DRSC14946]?
replicate 1, z-score of dpERK with insulin: 1.86

With l(3)neo38 [DRSC16138], what does the deposit list?
replicate 1, z-score of dpERK with insulin: 1.68

What did the screen give for Rae1 [DRSC04577]?
replicate 1, z-score of dpERK with insulin: 0.97

What did the screen give for gny [DRSC02810]?
replicate 1, z-score of dpERK with insulin: 0.29

How did the screen score Obp28a [DRSC03394]?
replicate 1, z-score of dpERK with insulin: -1.63

With CG1146 [DRSC08189], what was measured?
replicate 1, z-score of dpERK with insulin: 0.15

With mas [DRSC08720], how do the results read?
replicate 1, z-score of dpERK with insulin: 1.05

Which result is listed for CG11191 [DRSC06056]?
replicate 1, z-score of dpERK with insulin: -0.34

Which result is listed for Ccp84Ad [DRSC12589]?
replicate 1, z-score of dpERK with insulin: 1.44

What is on record for Ccp84Ad [DRSC22854]?
replicate 1, z-score of dpERK with insulin: 0.28

For Csk [DRSC12861], how do the results read?
replicate 1, z-score of dpERK with insulin: -0.88

How did the screen score Csk [DRSC15223]?
replicate 1, z-score of dpERK with insulin: -1.65

Which result is listed for Dpm1 [DRSC02018]?
replicate 1, z-score of dpERK with insulin: -0.06

How did the screen score CG11247 [DRSC11643]?
replicate 1, z-score of dpERK with insulin: 0.27

How did the screen score CG11247 [DRSC21901]?
replicate 1, z-score of dpERK with insulin: -0.05

For GABA-B-R2 [DRSC14134], how do the results read?
replicate 1, z-score of dpERK with insulin: 0.3

What is on record for CG2926 [DRSC12321]?
replicate 1, z-score of dpERK with insulin: -1.57

2 successive entries from above, quoted:
CG11247 [DRSC21901]: replicate 1, z-score of dpERK with insulin = -0.05
GABA-B-R2 [DRSC14134]: replicate 1, z-score of dpERK with insulin = 0.3
